# Data as given in PubChem BioAssay AID330 (DTP/NCI, 2004).
# The list does not hold the whole screen: it is rich in T/C values a quarter to a half above the control, in often repeated tests (any T/C) and in doses without a T/C. Other doses and runs of a compound stand elsewhere. T/C gives the treated animals as a percentage of the vehicle group. Some entries give survivors of the animals treated and no T/C: the source holds a T/C of zero for them, seemingly a mark for toxic or unscored doses. Some survivor counts are full or nearly so, which does not show that the dose was tolerated: survival well below the control is almost never listed, so the zero probably covers shortened survival too. Counts of survivors are from the toxicity check (mostly the fifth day) where no day follows; animals may have died later. Schedule codes are those of the source, read here as Q, the interval in days (D) or hours (H), X, the number of doses. Additions like (4×) count equal records among those shown. Some doses were run more than once; the results are listed from low to high. Where survival is the endpoint, the PubChem record calls one and a half times the control and up active, and a quarter to a half above the control has no call in these data; cut-offs in other NCI protocols can differ. Some T/C values are followed by the survivors on the day toxicity was checked, most often the fifth; without a count, all were alive then.
# System: P388 leukemia ip, CD2F1 mice, survival T/C
# Experiment: NCI In Vivo Anticancer Drug Screen. Data for tumor model P388 Leukemia (intraperitoneal) in CD2F1 (CDF1) mice
# Details: T/C endpoint: median survival time, higher T/C = longer survival
# [1] = dose: 50.0 mg/kg/injection, schedule: Q01DX009 (ip), vehicle: saline with Tween-80
# [2] = dose: 100.0 mg/kg/injection, schedule: Q01DX009 (ip), vehicle: saline with Tween-80
# [3] = dose: 200.0 mg/kg/injection, schedule: Q01DX009 (ip), vehicle: saline with Tween-80
# [4] = dose: 3.12 mg/kg/injection, schedule: Q01DX009 (ip), vehicle: saline
# [5] = dose: 6.25 mg/kg/injection, schedule: Q01DX009 (ip), vehicle: saline
# [6] = dose: 12.5 mg/kg/injection, schedule: Q01DX009 (ip), vehicle: saline
# [7] = dose: 25.0 mg/kg/injection, schedule: Q01DX009 (ip), vehicle: saline
# [8] = dose: 200.0 mg/kg/injection, schedule: Q04DX003 (ip), vehicle: saline with Tween-80
# [9] = dose: 400.0 mg/kg/injection, schedule: Q04DX003 (ip), vehicle: saline with Tween-80
# [10] = dose: 100.0 mg/kg/injection, schedule: Q04DX003 (ip), vehicle: saline with Tween-80
# [11] = dose: 0.63 mg/kg/injection, schedule: Q01DX009 (ip), vehicle: Klucel (hydroxypropylcellulose) (HPC)
compound,measurement,setting,value
CNC(=O)OCc1c(COC(=O)NC)c(-c2ccccc2)n(C)c1-c1ccccc1,T/C,"dose: 2.5 mg/kg/injection, schedule: Q01DX009 (ip), vehicle: distilled water + Tween-80",135 % of control
same,T/C,"dose: 3.12 mg/kg/injection, schedule: Q01DX009 (ip), vehicle: distilled water + Tween-80",127 % of control
same,T/C,"dose: 5.0 mg/kg/injection, schedule: Q01DX009 (ip), vehicle: distilled water + Tween-80",135 % of control
same,T/C,"dose: 6.25 mg/kg/injection, schedule: Q01DX009 (ip), vehicle: distilled water + Tween-80",148 % of control
same,T/C,"dose: 25.0 mg/kg/injection, schedule: Q01DX009 (ip), vehicle: distilled water + Tween-80",127 % of control
same,survivor count,"dose: 50.0 mg/kg/injection, schedule: Q01DX009 (ip), vehicle: distilled water + Tween-80",5 of 6
COc1cc(OC)cc(-c2n[se]c(-c3cc(OC)cc(OC)c3)n2)c1,survivor count,"dose: 3.12 mg/kg/injection, schedule: Q01DX009 (ip), vehicle: saline with Tween-80",6 of 6
same,survivor count,"dose: 6.25 mg/kg/injection, schedule: Q01DX009 (ip), vehicle: saline with Tween-80",6 of 6
same,survivor count,"dose: 12.5 mg/kg/injection, schedule: Q01DX009 (ip), vehicle: saline with Tween-80",5 of 6
same,survivor count,"dose: 25.0 mg/kg/injection, schedule: Q01DX009 (ip), vehicle: saline with Tween-80",6 of 6
same,survivor count,[1],6 of 6
same,survivor count,[2],6 of 6
same,survivor count,[3],5 of 6
Cc1cccc(C)c1NC(=O)NNC(N)=S,T/C,[4],"97, 102, 107 % of control [5 of 6 alive]"
same,survivor count,[4],6 of 6
same,T/C,[5],"90, 101 [5 of 6 alive], 104 % of control [5 of 6 alive]"
same,survivor count,[5],6 of 6
same,T/C,[6],"94, 98, 99, 100 % of control"
same,survivor count,[6],6 of 6
same,T/C,[7],"89, 96, 111, 120 % of control"
same,survivor count,[7],5 of 6
same,survivor count,"dose: 50.0 mg/kg/injection, schedule: Q01DX009 (ip), vehicle: saline",1 of 6
same,survivor count,[2],0 of 6
same,survivor count,[3],0 of 6
Cc1cc2c(c3ccccc13)C(=N/N=C(N)N)/C(=N/N=C(N)N)C2,survivor count,"dose: 100.0 mg/kg/injection, schedule: Q01DX001 (ip), vehicle: saline with Tween-80",1 of 6
N#Cc1c(-c2ccc(Cl)cc2)c(-c2ccc(Cl)cc2)nn(CCOC(=O)CN)c1=O,survivor count,"dose: 50.0 mg/kg/injection, schedule: Q01DX005 (ip), vehicle: distilled water + Tween-80",0 of 6 and 6 of 6
same,T/C,"dose: 50.0 mg/kg/injection, schedule: Q04DX002 (ip), vehicle: distilled water + Tween-80",126 and 137 % of control
same,survivor count,"dose: 100.0 mg/kg/injection, schedule: Q01DX005 (ip), vehicle: distilled water + Tween-80",0 of 6
same,survivor count,"dose: 100.0 mg/kg/injection, schedule: Q01DX005 (ip), vehicle: saline",5 of 6
same,survivor count,"dose: 100.0 mg/kg/injection, schedule: Q04DX002 (ip), vehicle: distilled water + Tween-80",5 of 6 and 6 of 6
same,survivor count,"dose: 200.0 mg/kg/injection, schedule: Q01DX005 (ip), vehicle: distilled water + Tween-80",0 of 6
same,survivor count,"dose: 200.0 mg/kg/injection, schedule: Q01DX005 (ip), vehicle: saline",0 of 6
same,survivor count,"dose: 200.0 mg/kg/injection, schedule: Q04DX002 (ip), vehicle: distilled water + Tween-80",5 of 6
COc1cc(C(=O)CO)cc(OC)c1OC(C)=O,T/C,[8],125 % of control
same,survivor count,[9],6 of 6 (2×)
O=C1NC(c2ccccc2)(c2ccccc2)C(=O)N1CCBr,T/C,"dose: 50.0 mg/kg/injection, schedule: Q04DX003 (ip), vehicle: Klucel (hydroxypropylcellulose) (HPC)",131 % of control
CCOc1cc2c(cc1C(C)c1ccc(OC)cc1)OCO2 (stereo not drawn),T/C,"dose: 100.0 mg/kg/injection, schedule: Q01DX005 (ip), vehicle: distilled water + alcohol",125 % of control
same,survivor count,"dose: 200.0 mg/kg/injection, schedule: Q01DX005 (ip), vehicle: distilled water + alcohol",3 of 5
N#Cc1ccc(C(=O)C=C(C(F)(F)F)C(F)(F)F)cc1,T/C,"dose: 5.56 mg/kg/injection, schedule: Q01DX009 (ip), vehicle: saline + alcohol",127 % of control
same,T/C,"dose: 6.25 mg/kg/injection, schedule: Q01DX009 (ip), vehicle: other",130 % of control
same,T/C,"dose: 8.33 mg/kg/injection, schedule: Q01DX009 (ip), vehicle: other",140 % of control
same,T/C,"dose: 8.33 mg/kg/injection, schedule: Q01DX009 (ip), vehicle: saline + alcohol",131 % of control
same,T/C,"dose: 12.5 mg/kg/injection, schedule: Q01DX009 (ip), vehicle: other",125 and 130 % of control
same,T/C,"dose: 12.5 mg/kg/injection, schedule: Q01DX009 (ip), vehicle: saline + alcohol",136 % of control
same,T/C,"dose: 18.7 mg/kg/injection, schedule: Q01DX009 (ip), vehicle: other",140 % of control
same,survivor count,"dose: 18.7 mg/kg/injection, schedule: Q01DX009 (ip), vehicle: saline + alcohol",3 of 6
CCCCN(C)N=Nc1ccc(CCCC(=O)OCC)cc1,T/C,[1],145 % of control
same,T/C,[2],127 % of control
same,survivor count,[10],0 of 6
same,T/C,"dose: 132.0 mg/kg/injection, schedule: Q04DX003 (ip), vehicle: saline with Tween-80",131 % of control
same,survivor count,[3],5 of 6
same,T/C,[8],136 and 140 % of control
same,T/C,"dose: 300.0 mg/kg/injection, schedule: Q04DX003 (ip), vehicle: saline with Tween-80",131 % of control
same,T/C,[9],136 % of control
CC1(Cl)C(c2ccccc2)=[N+]([O-])[N+]([O-])=C1c1ccccc1,survivor count,"dose: 400.0 mg/kg/injection, schedule: Q04DX002 (ip), vehicle: saline with Tween-80",2 of 6
C=CC12CN(C)C3C4COC(CC41)C1(C(=O)Nc4ccccc41)C32 (stereo not drawn),survivor count,"dose: 120.0 mg/kg/injection, schedule: Q01DX005 (ip), vehicle: Klucel (hydroxypropylcellulose) (HPC)",0 of 6
same,survivor count,"dose: 240.0 mg/kg/injection, schedule: Q01DX005 (ip), vehicle: Klucel (hydroxypropylcellulose) (HPC)",0 of 5
C=CCOc1ccccc1/C(CC)=N/N(C)C,survivor count,"dose: 200.0 mg/kg/injection, schedule: Q01DX009 (ip), vehicle: saline",1 of 6
COc1cc(C=C2C(=O)C=CC2=O)ccc1O,survivor count,"dose: 25.0 mg/kg/injection, schedule: Q04DX002 (ip), vehicle: saline with Tween-80",0 of 6
same,survivor count,"dose: 50.0 mg/kg/injection, schedule: Q04DX002 (ip), vehicle: saline with Tween-80",0 of 6
same,survivor count,"dose: 50.0 mg/kg/injection, schedule: Q04DX002 (ip), vehicle: saline",0 of 5
same,survivor count,"dose: 100.0 mg/kg/injection, schedule: Q04DX002 (ip), vehicle: saline with Tween-80",0 of 6
same,survivor count,"dose: 100.0 mg/kg/injection, schedule: Q04DX002 (ip), vehicle: saline",0 of 5
COc1ccc(CC2c3ccccc3CC[N+]2(C)C)cc1Oc1ccc(CC2c3ccccc3CC[N+]2(C)C)cc1 (stereo not drawn),survivor count,"dose: 6.25 mg/kg/injection, schedule: Q04DX003 (ip), vehicle: saline with Tween-80",0 of 6
same,survivor count,"dose: 12.5 mg/kg/injection, schedule: Q04DX003 (ip), vehicle: saline with Tween-80",0 of 6
same,survivor count,"dose: 25.0 mg/kg/injection, schedule: Q04DX003 (ip), vehicle: saline with Tween-80",0 of 6
same,survivor count,[10],0 of 6
same,survivor count,[8],0 of 6
same,survivor count,[9],0 of 6
COC1CC(CC2CCC(C)C(C(C)C(=O)O)O2)OC2(OC(C)(C3CCC(C)(C4OC(C5OC(O)(CO)C(C)CC5C)CC4C)O3)CC2C)C1C (stereo not drawn),T/C,[11],"93, 96, 104 % of control"
same,survivor count,[11],6 of 6
same,T/C,"dose: 1.25 mg/kg/injection, schedule: Q01DX009 (ip), vehicle: Klucel (hydroxypropylcellulose) (HPC)","102, 104, 115, 125 % of control"
same,survivor count,"dose: 5.0 mg/kg/injection, schedule: Q01DX009 (ip), vehicle: Klucel (hydroxypropylcellulose) (HPC)",4 of 6 and 6 of 6
